The target of one assay is T1, GST–Aly2 (S. cerevisiae) (UniProt P47029).
T1 sequence: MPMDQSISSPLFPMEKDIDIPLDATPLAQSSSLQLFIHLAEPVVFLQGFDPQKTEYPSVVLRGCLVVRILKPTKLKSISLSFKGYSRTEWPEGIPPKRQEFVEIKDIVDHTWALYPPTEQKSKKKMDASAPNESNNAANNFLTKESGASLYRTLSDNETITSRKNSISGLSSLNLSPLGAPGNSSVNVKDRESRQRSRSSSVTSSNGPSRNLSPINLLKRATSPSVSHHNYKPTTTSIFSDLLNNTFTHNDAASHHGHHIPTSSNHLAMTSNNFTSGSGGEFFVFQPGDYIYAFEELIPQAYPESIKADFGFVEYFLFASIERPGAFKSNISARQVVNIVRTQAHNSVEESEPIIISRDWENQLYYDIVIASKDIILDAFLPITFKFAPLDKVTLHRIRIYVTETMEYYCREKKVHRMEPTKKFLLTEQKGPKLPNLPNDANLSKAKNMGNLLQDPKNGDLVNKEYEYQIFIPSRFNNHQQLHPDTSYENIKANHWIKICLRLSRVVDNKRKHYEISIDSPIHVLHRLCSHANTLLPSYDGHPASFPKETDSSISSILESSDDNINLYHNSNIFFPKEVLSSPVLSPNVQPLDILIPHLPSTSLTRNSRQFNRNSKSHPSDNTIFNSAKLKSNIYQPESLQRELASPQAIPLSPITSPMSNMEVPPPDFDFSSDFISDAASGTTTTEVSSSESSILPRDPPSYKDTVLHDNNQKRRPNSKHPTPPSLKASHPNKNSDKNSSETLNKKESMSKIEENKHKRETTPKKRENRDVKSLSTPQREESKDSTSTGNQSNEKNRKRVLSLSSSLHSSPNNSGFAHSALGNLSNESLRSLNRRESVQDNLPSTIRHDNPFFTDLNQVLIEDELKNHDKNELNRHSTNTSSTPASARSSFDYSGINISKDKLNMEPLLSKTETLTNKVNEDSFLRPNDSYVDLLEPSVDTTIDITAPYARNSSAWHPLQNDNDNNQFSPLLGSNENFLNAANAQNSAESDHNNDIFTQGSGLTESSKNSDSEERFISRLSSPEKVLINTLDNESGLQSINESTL
The experiment in a line: pull-down; GST or GST–α-arrestins from BJ5459 GEV yeast extracts on glutathione-agarose beads, washed, incubated 2 h at 4°C with extract of cells expressing HA-Rho1; 100 mM NaCl, 0.2% Triton X-100, 15 mM EGTA, 50 mM Tris-HCl pH 7.4; immunoblot anti-HA and anti-GST; only the target purified.

The chains behind the UniProt entries cited, without tags or fusion partners.
UniProt P06780: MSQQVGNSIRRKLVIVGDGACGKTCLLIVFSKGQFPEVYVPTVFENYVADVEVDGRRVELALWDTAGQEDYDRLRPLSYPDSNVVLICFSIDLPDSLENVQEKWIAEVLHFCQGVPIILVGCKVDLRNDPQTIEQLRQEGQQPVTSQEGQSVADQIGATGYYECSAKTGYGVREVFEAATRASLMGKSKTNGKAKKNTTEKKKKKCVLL

The target of another assay is T2, GST–Rod1 (S. cerevisiae) (UniProt Q02805).
T2 sequence: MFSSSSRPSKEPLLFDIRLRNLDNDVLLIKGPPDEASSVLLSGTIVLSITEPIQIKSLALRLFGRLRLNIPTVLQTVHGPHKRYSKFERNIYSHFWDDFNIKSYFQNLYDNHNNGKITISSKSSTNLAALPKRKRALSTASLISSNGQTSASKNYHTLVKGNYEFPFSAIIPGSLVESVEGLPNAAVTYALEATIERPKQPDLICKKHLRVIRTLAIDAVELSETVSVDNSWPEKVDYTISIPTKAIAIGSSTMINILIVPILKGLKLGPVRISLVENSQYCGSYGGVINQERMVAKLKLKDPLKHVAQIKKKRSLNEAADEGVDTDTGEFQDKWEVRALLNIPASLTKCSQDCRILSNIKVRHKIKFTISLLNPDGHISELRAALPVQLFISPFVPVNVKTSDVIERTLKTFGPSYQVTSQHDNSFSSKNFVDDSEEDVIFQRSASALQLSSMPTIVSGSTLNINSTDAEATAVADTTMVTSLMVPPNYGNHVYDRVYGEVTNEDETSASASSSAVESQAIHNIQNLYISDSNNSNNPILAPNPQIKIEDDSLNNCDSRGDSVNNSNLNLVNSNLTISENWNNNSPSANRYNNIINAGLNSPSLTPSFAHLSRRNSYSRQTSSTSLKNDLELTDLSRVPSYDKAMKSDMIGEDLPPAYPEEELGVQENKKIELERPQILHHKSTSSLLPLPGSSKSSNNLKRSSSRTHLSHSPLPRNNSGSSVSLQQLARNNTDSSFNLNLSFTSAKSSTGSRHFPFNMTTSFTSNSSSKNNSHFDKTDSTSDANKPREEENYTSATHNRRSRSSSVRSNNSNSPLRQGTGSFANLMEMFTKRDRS
Described as above.

This passage reports binding results from article PMC4712785.

These are yes or no findings as the source states them, for the method shown. In cells and extracts the contact can be indirect. Some results given as binding are weak or reduced against the parent protein; the word gives no strength. Tags and fused reporters may be left off the sequences shown.

As for HA–Rho1 (from UniProt P06780 1-209), the binding result with GST–Aly2 (S. cerevisiae) and with GST–Rod1 (S. cerevisiae) was “binds” throughout.
